Measurements from patent publication US20160039742A1, “EXTRACTION OF TRAMADOL FROM NAUCLEA LATIFOLIA SMITH” ([…] FOURIER - GRENOBLE 1, priority 2013, published 2016).
Marks after values point to notes of the source that are not given here.

How the values were obtained:
Assay type in all cases: in vivo
[1] = tested on: tail flick response in mice after immersion in 55° C. water bath; assay: Tail-flick test
Protocol: (§1) Experiments in mice were performed on C57BL/6 male mice (Janvier, Le-Genest-St-Isle, France) weighting 26-35 g, housed in individual cages with food and water ad libitum and kept in a 12 hours/12 hours light-dark cycle. All animal experimentations were carried out in accordance with the rules of the European Committee Council Directive of Nov. 24, 1986 (86/609/EEC) and all procedures were approved by the local department of the veterinarian services for the use and care of animals (agreement #380612). All efforts were made to minimize animal suffering and reduce the number of animals used in each series of experiments.
The tail-flick test was carried out according to the method described by D'Amour and Smith. This involved immersing extreme 3 cm of the mice's tail in water bath containing water at a temperature of 55±0.5° C. […] The reaction time was recorded with a stopwatch. […] The reaction time of mice was taken at intervals of 15, 30 and 60 min after a latency period of 1 hour following the administration of the decoction and drugs.
The protection percentage was calculated as the ratio (reaction time following tramadol administration−initial reaction time): initial reaction time.

[2] = tested on: acetic acid-induced abdominal constrictions in mice; assay: Acetic acid induced abdominal constriction (writhing) test; settings: for Acetic acid-induced writhing inhibition (%): 1 h before acetic acid
Protocol: as §1
One hour after oral administration of these substances, each animal was injected i.p. with 0.6% acetic acid in a volume of 10 ml/kg body weight. After acetic acid injection, the number of stretching or writhing responses per animal was recorded during 30 min after a latency period of 5 min. Inhibition was expressed in percentage.
Data were analyzed by two-way Anova followed by Tukey's (HSD) multi-comparison test.

[3] = tested on: glutamate-induced nociception in mice; assay: Glutamate-induced nociception; settings: p.o., 1 hour before test
Protocol: as §1
Animals were treated with the purified tramadol isolated from Nauclea Latifolia (8, 16 or 32 mg/kg, p.o.), dipyrone (60 mg/kg, p.o.) or 0.9% NaCl (p.o.) 1 hour before test. A volume of 20 μl of glutamate (30 μmol/paw) was injected intraplantarly in the ventral surface of the right hind paw. Animals were observed individually for 15 min following glutamate injection. The amount of time they spent licking the injected paw was recorded with a chronometer and was considered as indicative of nociception. Data were analyzed by two-way Anova followed by Tukey's (HSD) multi-comparison test.

COc1cccc([C@]2(O)CCCC[C@H]2CN(C)C)c1 (racemic) [F27 of N. latifolia, (±)-cis-2-dimethylaminomethyl-1-(3-methoxyphenyl)cyclohexanol]
Protection agains thermal nociception (%) ([1]; 32 mg/kg p.o., 60 min): 63.5*** %
maximum inhibitory effect in tail immersion ([1]; between 30 and 60 post-dosing, dose of 800 mg/kg as printed): 63.5%
Acetic acid-induced writhing inhibition (%) ([2]; 8 mg/kg p.o.): 19.3%
Acetic acid-induced writhing inhibition (%) ([2]; 16 mg/kg p.o.): 43.7%
Acetic acid-induced writhing inhibition (%) ([2]; 32 mg/kg p.o.): 56.8%
dose dependence of inhibition of acetic acid-induced abdominal constrictions ([2]; 8, 16 or 32 mg/kg, p.o.): dose-dependent
maximal inhibition of acetic acid-induced abdominal constrictions ([2]; oral administration): 56.8%
maximal inhibition of glutamate-induced nociception [3]: 66.55%
